About 6,200 (1.8%) of roughly 340,000 compounds were called active. The shares of active, inactive and inconclusive entries below differ from those in the screen. Calls come from the whole dose curve; as a rule, active = well fitted activation curve with a large enough effect; inconclusive = small, poorly fitted or top-dose-only effect; inactive = no such curve, though single readings can be large or run the other way. A potency beside an inconclusive call is a rough fit, not a confirmed value.
Assay: A quantitative high throughput screen for small molecules that induce DNA re-replication in SW480 colon adenocarcinoma cells. For re-replication activation: % of control where 0% means no effect. Note: nearly all actives have a fitted effect of over 55% in size.
Conditions: Hoechst DNA content imaging, 48 h; re-replication activation: at 46.1 µM (top of the series) unless noted
Summary of the method: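 Image-based read-out: total Hoechst fluorescence of nuclei (405 nm excitation, 500-530 nm emission), with hits raising the fraction of high-intensity nuclei. SW480 colon cells incubated 48 hr with compounds at 37 C.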
Potency is the fitted concentration of half-maximal effect.

Row | SMILES | Potency | re-replication activation
1 | CCN(CC)C(=O)CSc1nnc2nnc3cc(OC)ccc3n12 | inconclusive: 29.1 µM [activator, single point] | 
2 | COc1cccc(/C=C/C(=O)c2ccc3c(c2)OCCO3)c1OC | inconclusive: 20.6 µM [activator, single point] | 
3 | CCOC(=O)c1cc(-c2ccccc2)nc2nc(N(CC)CC)sc12 | inconclusive: 6.51 µM [activator, full curve, poor fit] | 
4 | Cc1cc(C(=O)NNc2ccc(C)c(C)c2)no1 | inconclusive: 5.17 µM [activator, partial curve, poor fit] | 
5 | Cc1cc(C(=O)NCCCn2ccnc2)cs1 |  | inactive: -12.8%
6 | CC(=O)Nc1ccc(OCC(O)CN2CCN(S(=O)(=O)c3ccc(NC(C)=O)cc3)CC2)cc1 (stereo unspecified) |  | inactive: 1.58%
7 | COc1cc2c(cc1OC)C(C)N(C(C)=O)CC2 (stereo unspecified) | inconclusive: 16.4 µM [activator, partial curve, poor fit] | 
8 | O=[N+]([O-])c1ccc(/C=N/Nc2nc(-c3ccccc3)c3cc(Br)ccc3n2)o1 |  | inactive: -0.49%
9 | Cc1ccc(S(=O)(=O)CCC(=O)c2ccc(O)cc2O)cc1 | inconclusive: 7.31 µM [activator, single point] | 
10 | O=C(Nc1ccccc1)N1CC=C(c2ccc(F)cc2)CC1 |  | inactive: -0.0992%
11 | CCN(CC)S(=O)(=O)c1ccc(OC)c(NC(=S)Nc2ccc(C)c(C)c2)c1 | inconclusive: 23.1 µM [activator, partial curve, poor fit] | 
12 | O=C(NC1CCCCC1)c1cccc(OCc2ccccc2)c1 | inconclusive: 29.1 µM [activator, single point] | 
13 | O=C(O)CC1(CC(=O)Nc2ccccc2N2CCOCC2)CCCC1 | inconclusive: 0.146 µM [activator, full curve, poor fit] | 
14 | COc1cccc(C(O)c2cnc(C(C)C)n2C)c1OC (stereo unspecified) | inconclusive: 32.6 µM [activator, partial curve, poor fit] | 
15 | O=C1C2C3c4ccccc4C(c4ccccc43)[C@@H]2C(=O)N1c1cccnc1 (stereo partly specified) |  | inactive: -0.702%
16 | CCN(CC)CCOCCOc1ccccc1F | inconclusive: 29.1 µM [activator, single point] | 
17 | COc1cc(/C=C2/C(=N)N3C(=NC2=O)SN=C3S(C)(=O)=O)ccc1OS(=O)(=O)c1ccc(C)cc1 | inconclusive: 23.1 µM [activator, single point] | 
18 | COc1ccc(/C=C/C(=O)O/N=C(\N)c2cccnc2)cc1OC |  | inactive: -17.7%
19 | COc1cccc(CNC(=O)COc2ccc(C(=O)c3ccccc3)cc2)c1 | inconclusive: 29.1 µM [activator, single point] | 
20 | Cn1c(CC(=O)NNC(=O)c2cccnc2)nc2ccccc21 | inconclusive: 29.1 µM [activator, single point] | 
21 | N#CC(Nc1ccccc1)c1ccccc1OCc1ccccc1 (stereo unspecified) | inconclusive: 16.4 µM [activator, partial curve, poor fit] | 
22 | CCOC(=O)C1CCCN(CC(=O)Nc2c(C(=O)OC)[nH]c3ccccc23)C1 (stereo unspecified) |  | inactive: 15.1%

Row | SMILES | Potency | re-replication activation
23 | Cc1ccc(-n2c(-c3ccccc3)n[nH]c2=S)c(C)c1 | inconclusive: 1.84 µM [activator, partial curve, poor fit] | 
24 | Cc1cc(SCC(=O)c2cc3ccccc3o2)nc2ccccc12 | inconclusive: 35.5 µM [activator, single point] | 
25 | Cc1ccc(CNC(=O)Cn2cnc3c(NCc4ccccc4)ncnc32)o1 | inconclusive: 18.4 µM [activator, single point] | 
26 | CC(C)C(=O)N1CCC(n2nccc2NC(=O)CCc2ccccc2)CC1 | inconclusive: 20.6 µM [activator, single point] | 
27 | CCN(CC)CCCC(C)NC(=O)c1c(NC(=O)c2ccccc2)sc2c1CCCC2 (stereo unspecified) | inconclusive: 23.1 µM [activator, single point] | 
28 | COc1ccc(Oc2ccc(/C=N/NC(=O)c3cccnc3)cc2[N+](=O)[O-])cc1 | inconclusive: 25.9 µM [activator, partial curve, poor fit] | 
29 | Cc1ccc(N(Cc2ccccc2)C(=O)c2cccc(F)c2)cc1 |  | inactive: 7.38%
30 | CC(C)Oc1cc(NC(=O)CSCC(=O)Nc2cccc(C(F)(F)F)c2)c(Cl)cc1Cl | inconclusive: 16.4 µM [activator, single point] | 
31 | CN(C)CCCN1C(=O)c2cccc3c([N+](=O)[O-])ccc(c23)C1=O | active: 5.8 µM | 
32 | O=C(Nc1ccc(-c2nc3ccccc3o2)cc1)c1ccc(N2CCOCC2)c([N+](=O)[O-])c1 | inconclusive: 2.59 µM [activator, full curve, poor fit] | 
33 | O=c1oc2cc(O)ccc2cc1S(=O)(=O)c1ccccc1 |  | inactive: 1.52%
34 | Cc1ccc2nc(N3C(=O)C(O)=C(C(=O)c4cc5ccccc5o4)C3c3cccs3)sc2c1 (stereo unspecified) |  | inactive: 19.3%
35 | CC(CC(=O)Nc1nnc(CC(C)(C)C)s1)c1ccccc1 (stereo unspecified) | inconclusive: 6.51 µM [activator, single point] | 
36 | Cc1ccc(NC(=O)C(=O)NCCOc2ccc(Cl)cc2)c(C)c1 |  | inactive: 2.11%
37 | COc1ccc(C(CNC(=O)COc2c(C)cc(C)cc2C)N2CCOCC2)cc1 (stereo unspecified) |  | inactive: -3.29%
38 | COc1cccc(NC(=S)NC(=O)/C=C/c2ccco2)c1 | inconclusive: 23.1 µM [activator, single point] | 
39 | O=C1OC(c2ccc3ccccc3c2O)(c2ccc3ccccc3c2O)c2ccccc21 | inconclusive: 29.1 µM [activator, single point] | 
40 | COc1ccc(NC(=O)CCCN2C(=O)/C(=C\c3ccco3)SC2=S)cc1 | inconclusive: 29.1 µM [activator, single point] | 
41 | COc1ccc(C(=O)c2c(C(F)(F)F)oc3c2C(=O)c2ccccc2C3=O)cc1 | active: 5.17 µM | 
42 | CCC(=O)Nc1ccccc1Nc1cc(C#N)c(C#N)cc1[N+](=O)[O-] | inconclusive: 29.1 µM [activator, single point] | 
43 | O=C(CN1C(=O)NC2(CCOc3ccccc32)C1=O)c1ccc(F)c(F)c1 (stereo unspecified) | inconclusive: 29.1 µM [activator, single point] | 
44 | Cc1cc(C)cc(NC(=S)NCc2ccc3[nH]c4c(c3c2)CCCC4)c1 | inconclusive: 32.6 µM [activator, partial curve, poor fit] | 

Entries shown so far that have a cyano group, in the order listed:
Row | SMILES | Potency | re-replication activation
21 | N#CC(Nc1ccccc1)c1ccccc1OCc1ccccc1 (stereo unspecified) | inconclusive: 16.4 µM [activator, partial curve, poor fit] | 
42 | CCC(=O)Nc1ccccc1Nc1cc(C#N)c(C#N)cc1[N+](=O)[O-] | inconclusive: 29.1 µM [activator, single point] | 

Following part

Row | SMILES | Potency | re-replication activation
45 | COc1ccc(NC(=O)c2cc([N+](=O)[O-])ccc2N2CCN(C)CC2)cc1 | inconclusive: 18.4 µM [activator, single point] | 
46 | CCOc1ccccc1OCCCC(=O)N(CC)CC(=O)Nc1ccc(NC(C)=O)cc1 |  | inactive: 0.477%
47 | O=C(CCN1C(=O)/C(=C\c2cccc(Br)c2)SC1=S)N1CCOCC1 | inconclusive: 6.51 µM [activator, partial curve, poor fit] | 
48 | CNC[C@H]1Oc2c(NC(=O)C3CCCCC3)cccc2C(=O)N([C@H](C)CO)C[C@@H]1C |  | inactive: 4.46% [at 9.22 µM]
49 | N#CC1(NC(=O)COC(=O)C23CC4CC(CC(O)(C4)C2)C3)CCCCC1 |  | inactive: -23.8%
50 | COc1ccc(-n2nc3c(N4CCC(C(=O)NCc5ccccc5)CC4)nnc(C)c3c2C)cc1 | inconclusive: 16.4 µM [activator, single point] | 
51 | CCc1nc(N2CCN(Cc3ccc4c(c3)OCO4)CC2)c2oc3ccccc3c2n1 | inconclusive: 29.1 µM [activator, single point] | 
52 | COC(=O)c1ccccc1S(=O)(=O)N1CCC(C(=O)OCc2cccc(OC)c2OC)CC1 |  | inactive: -2.91%
53 | COc1ccccc1C(C)NCC(=O)Nc1ccccc1C(F)(F)F (stereo unspecified) | inconclusive: 23.1 µM [activator, partial curve, poor fit] | 
54 | O=C(NCCc1c[nH]c2ccccc12)C(=O)NCC1OCCCN1S(=O)(=O)c1ccccc1 (stereo unspecified) | inconclusive: 29.1 µM [activator, single point] | 
55 | COc1ccc(C(=O)NC(Cc2c[nH]c3ccccc23)C(=O)O)cc1 (stereo unspecified) |  | inconclusive: -62% [activator]
56 | CCC/C(=C1/c2ccccc2C(=O)N1c1ccccc1)c1ccc2[nH]ccc2c1 | inconclusive: 25.9 µM [activator, single point] | 
57 | CCc1ccc(NC(=O)COc2ccc(F)cc2C(=O)c2cnn(-c3ccccc3)c2)cc1 | inconclusive: 29.1 µM [activator, single point] | 
58 | O=C(COc1ccccc1[N+](=O)[O-])N/N=C/c1ccc(O)cc1 | inconclusive: 20.6 µM [activator, single point] | 
59 | CC1CC(C)CN(CCCNC(=O)c2nn(C)c3c2CS(=O)(=O)c2ccccc2-3)C1 (stereo unspecified) | inconclusive: 1.84 µM [activator, partial curve, poor fit] | 
60 | CCOc1ccc(NC(=O)N[C@@H](CCSC)C(=O)OC)cc1 | inconclusive: 23.1 µM [activator, partial curve, poor fit] | 
61 | CCN(CC)S(=O)(=O)c1cccc(NC(=O)Nc2cccc(C(F)(F)F)c2)c1 | inconclusive: 20.6 µM [activator, single point] | 
62 | Cc1ccc2nc(SCc3nc4cc(Cl)ccc4c(=O)[nH]3)[nH]c2c1 |  | inactive: 15.9%
63 | CN1CCN(CCCC(=O)c2ccc(C3CCCC3)cc2)CC1 | inconclusive: 29.1 µM [activator, single point] | 
64 | CC(=O)N1CCOc2ccc(S(=O)(=O)NCCc3ccc(Cl)cc3)cc21 |  | inactive: -7.45%
65 | C[C@H](CO)N1C[C@H](C)[C@@H](CN(C)C(=O)NC2CCCCC2)Oc2ccc(NC(=O)C3CCCCC3)cc2C1=O | inconclusive: 0.0046 µM [activator, full curve, poor fit] | 
66 | CCOc1ccc(-c2nnc(SCC(=O)Nc3ccc4c(c3)c3ccccc3n4CC)n2N)cc1 | inconclusive: 16.4 µM [activator, partial curve, poor fit] | 

— PubChem BioAssay AID624297 (National Center for Advancing Translational Sciences (NCATS), 2012)
